The record followed here is US9993480B2, “mTOR/JAK inhibitor combination therapy” (NOVARTIS PHARMA AG, priority 2011, dated 2018).

The test system of assay [1] is Ba/F3 epoR JAK2 wild-type cells. Briefly: Clonogenic assay in agar. The following applies: Mus musculus, BaF3, 168 h, read-out: IC50, clonogenic assay.
Assay [2] relates to Ba/F3 JAK2 wild-type cells. Briefly: Clonogenic assay in agar. The settings on record: Mus musculus, BaF3, 168 h, read-out: IC50, clonogenic assay.
The test system of the next assay is Ba/F3 JAK2 V617F cells. Briefly: Clonogenic assay in agar. The settings on record: Mus musculus, BaF3, 168 h, read-out: IC50, clonogenic assay.
Assay [3] has as its system Ba/F3 epoR JAK2 V617F cells. Briefly: Clonogenic assay in agar. The following applies: Mus musculus.
The subject of assay [4] is BaF/3 cells expressing JAK2 wild-type. Briefly: Proliferation inhibition assay (WST-1). The settings on record: Mus musculus, BaF3, read-out: IC50, proliferation inhibition. The format is cell-based, murine. From the text: (§1) The HEL, SET2 and K562 human cell lines were purchased from the German Collection of Microorganisms and Cell Cultures (DSMZ, Braunschweig, Germany). Murine BaF/3 and BaF/3-EPOR cells expressing JAK2 wild-type (wt) or JAK2V617F were donated by R. Skoda (Basel, Switzerland).
For orientation: Tetrazolium assays rely on reduction of a dye to a coloured formazan, in cell work by metabolically active cells.

For assay [5], the system named is BaF/3 cells expressing JAK2V617F. Briefly: Proliferation inhibition assay (WST-1). Type of assay: cell-based, murine.
From the text: as §1

The subject of assay [6] is BaF/3-EPOR cells expressing JAK2V617F. Briefly: Proliferation inhibition assay (WST-1). The format is cell-based, murine. The settings on record: read-out: IC50, proliferation inhibition.
From the text: as §1

Molecules are shown by their SMILES. Where two headings read alike, the source gives them in different places.

As for `CC(C)n1nc(-c2cc3cc(O)ccc3[nH]2)c2c(N)ncnc21` [PP242, 2-(4-amino-1-isopropyl-1H-pyrazolo[3,4-d]pyrimidin-3-yl)-1H-indol-5-ol], the IC50 was 308 ± 100 nM in assay [1]; 100 ± 10 nM in assay [2]; 18 ± 7 nM in the assay with Ba/F3 JAK2 V617F cells; 47 ± 12 nM in assay [3] (BaF3, 168 h, read-out: IC50, clonogenic assay); 6.3 nM in assay [3] (BaF3, read-out: IC50 of the mTOR inhibitor in drug combination with Cmp A); 3400 nM in assay [4]. The IC50 in assay [5] (Mus musculus, BaF3, read-out: IC50, proliferation inhibition) came to 800 nM; in assay [5] (read-out: IC50, proliferation inhibition), 1600 nM; in assay [6] (Mus musculus), 500 nM; in assay [6] it was 750 nM.
